Laboratory results reported in paper PMC6753081 (Nature Communications, 2019).
No constants are given. Whether binding was seen depends on the method and setting. Binding can be weak; no strength is given.

Biological target: C. immitis calcineurin catalytic subunit (CnA), residues 27-395 (C. immitis) (UniProt J3K8M7)
Assay: crystal structure; both purified

C. immitis calcineurin regulatory subunit (CnB), residues 22-191 (from UniProt A0A0D8JSK0) (domain or fragment)
binding: binds
